The values below come from US8410028 (dated 2013).

Non-standard residues stand in square brackets, D forms with d. *: point of attachment. Azidoacetyl = [N-]=[N+]=NCC(=O)*; Pra = C#CC[C@H](N)C(=O)O

The nature of series [1]: general procedure: Fmoc solid-phase peptide synthesis; Glycine-Wang resin; HATU. The settings on record: whole synthesis, scale 0.3 mmol.
The nature of series [2]: general procedure: Fmoc solid-phase peptide synthesis; Rink-amide resin; Glycine-Wang resin; HATU. The settings on record: cyclisation step, on linear precursor.

In series [1], “Azidoacetyl-GPF[Pra]G-OH (SEQ ID NO: 920)” registered an isolated mass of 83 mg and an isolated yield of 50%.
Take “cyclic Azidoacetyl-Gly-Pro-Phe-Pra-Gly-OH”: in series [2], the cyclisation yield is 20%.
With cyclic Azidoacetyl-Gly-Pro-Phe-Pra-NH2, the cyclisation yield in series [2] came out at 32%.
